Experimental data published in PMC11445503.

Target: ABL1 as used in the GST pull-down of Supplementary Fig. S2F (human)
Assay: pull-down; GST pull-down of Supplementary Fig. S2F; which partner carried GST is not told

binding: binds
B1: FOXM1 N-terminal repressor domain (NRD, aa 1-234) (domain or fragment, UniProt Q08050-2 1-234)
chain: MKTSPRRPLILKRRRLPLPVQNAPSETSEEEPKRSPAQQESNQAEASKEVAESNSCKFPAGIKIINHPTMPNTQVVAIPNNANIHSIITALTAKGKESGSSGPNKFILISCGGAPTQPPGLRPQTQTSYDAKRTEVTLETLGPKPAARDVNLPRPPGALCEQKRETCADGEAAGCTINNSLSNIQWLRKMSSDGLGSRSIKQEMEEKENCHLEQRQVKVEEPSRPSASWQNSVS

These are yes or no findings as the source states them, for the method shown. Binding seen in cells or lysates may run through a third protein. Binding can be weak; no strength is given.
